The results in this text go back to patent US20250339465A1.

Protein sequences, listed by entry. Tags and fused reporters are not part of them. Residues count along the entry.
UniProt Q01973, residues 30-406: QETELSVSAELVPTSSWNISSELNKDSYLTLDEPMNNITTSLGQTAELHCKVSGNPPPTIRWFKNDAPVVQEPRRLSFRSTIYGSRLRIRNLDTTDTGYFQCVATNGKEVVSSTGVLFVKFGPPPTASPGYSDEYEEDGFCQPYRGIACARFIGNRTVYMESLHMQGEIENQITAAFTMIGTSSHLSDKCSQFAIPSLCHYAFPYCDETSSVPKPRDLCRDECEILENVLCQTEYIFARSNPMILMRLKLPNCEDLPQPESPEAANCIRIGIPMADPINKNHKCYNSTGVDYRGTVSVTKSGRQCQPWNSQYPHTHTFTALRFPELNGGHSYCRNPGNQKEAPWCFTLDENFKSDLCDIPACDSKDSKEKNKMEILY

The test concerns the target extracellular ROR1 protein (UniProt Q01973). Put plainly: ELISA.

Results are given in words; binding and its absence hold for the method and conditions named. Some binding calls cover weakened binding; strength is not graded here.

B1: mouse monoclonal anti-ROR1 antibody, hybridoma clone 2H6 (antibody, V domains shown)
VH: VKLVESGGGLVKPGGSLKLSCAASGFTFSTYAMSWVRQTPEKRLEWVASISSGGNTYYPDSVKGRFTISRDNARHILYLQMSSLRSEDTAMYYCARDSYYFGNSVYYAMDYWGQGTSVTVSS
VL: DIKMTQSPSSMYASLGERVTITCKASQDINSYFSWFQQKPGKSPKTLIYRANRLVDGVPSRFSGSGSGQDYSLTISSLEYEDMGIYYCLQYDEFPYTFGGGTKLEIKR
For the molecule B1, the binding entry is “binds”.
